Data on 39 targets can be found in the supplement of paper PMC10849652.

Sequences of proteins named here, by UniProt entry; tags and fusion partners are left off. A change or cut given only in a name is not applied to a line headed by its entry.
UniProt Q15800: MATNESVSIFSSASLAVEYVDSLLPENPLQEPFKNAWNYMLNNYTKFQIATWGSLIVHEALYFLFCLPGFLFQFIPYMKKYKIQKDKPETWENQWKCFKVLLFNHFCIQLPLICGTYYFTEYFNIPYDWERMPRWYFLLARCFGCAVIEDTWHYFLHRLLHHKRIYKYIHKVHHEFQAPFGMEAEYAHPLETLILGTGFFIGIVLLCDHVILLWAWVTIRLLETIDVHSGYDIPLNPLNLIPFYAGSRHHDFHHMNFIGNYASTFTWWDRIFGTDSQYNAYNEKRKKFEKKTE
UniProt Q96DH6: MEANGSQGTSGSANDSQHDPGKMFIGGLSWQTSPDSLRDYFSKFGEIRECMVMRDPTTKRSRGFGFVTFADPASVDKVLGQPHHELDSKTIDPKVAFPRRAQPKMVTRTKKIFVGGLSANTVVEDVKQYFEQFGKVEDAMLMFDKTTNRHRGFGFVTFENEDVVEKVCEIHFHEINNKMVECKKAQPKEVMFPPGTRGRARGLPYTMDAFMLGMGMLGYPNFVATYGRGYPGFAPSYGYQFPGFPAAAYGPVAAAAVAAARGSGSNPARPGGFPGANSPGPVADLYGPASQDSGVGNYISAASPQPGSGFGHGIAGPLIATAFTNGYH
UniProt Q96E11: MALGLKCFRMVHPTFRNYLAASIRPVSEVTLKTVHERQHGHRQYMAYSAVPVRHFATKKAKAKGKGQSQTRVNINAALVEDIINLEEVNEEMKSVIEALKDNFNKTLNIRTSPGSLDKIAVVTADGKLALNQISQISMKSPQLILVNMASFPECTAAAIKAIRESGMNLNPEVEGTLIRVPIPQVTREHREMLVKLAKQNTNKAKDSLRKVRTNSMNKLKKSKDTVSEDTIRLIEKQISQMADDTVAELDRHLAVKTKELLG
UniProt Q13330: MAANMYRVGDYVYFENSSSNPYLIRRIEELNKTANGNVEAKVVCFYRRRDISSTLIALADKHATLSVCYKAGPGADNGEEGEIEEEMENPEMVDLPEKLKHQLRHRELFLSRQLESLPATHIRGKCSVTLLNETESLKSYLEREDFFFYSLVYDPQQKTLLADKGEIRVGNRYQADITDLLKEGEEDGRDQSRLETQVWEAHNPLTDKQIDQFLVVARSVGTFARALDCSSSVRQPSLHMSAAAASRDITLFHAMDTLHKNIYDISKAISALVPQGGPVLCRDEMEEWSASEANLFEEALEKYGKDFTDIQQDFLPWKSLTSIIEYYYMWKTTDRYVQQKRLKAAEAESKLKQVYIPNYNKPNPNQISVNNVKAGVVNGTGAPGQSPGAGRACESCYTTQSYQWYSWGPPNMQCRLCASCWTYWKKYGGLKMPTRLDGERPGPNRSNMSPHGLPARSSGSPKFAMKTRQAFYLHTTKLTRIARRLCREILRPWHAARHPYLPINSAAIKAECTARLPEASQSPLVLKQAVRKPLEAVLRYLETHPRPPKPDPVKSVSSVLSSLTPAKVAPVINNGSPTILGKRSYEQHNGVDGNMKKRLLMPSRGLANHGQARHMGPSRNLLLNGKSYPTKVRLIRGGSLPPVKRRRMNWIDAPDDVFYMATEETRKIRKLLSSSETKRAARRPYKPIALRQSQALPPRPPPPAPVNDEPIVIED
UniProt Q15390: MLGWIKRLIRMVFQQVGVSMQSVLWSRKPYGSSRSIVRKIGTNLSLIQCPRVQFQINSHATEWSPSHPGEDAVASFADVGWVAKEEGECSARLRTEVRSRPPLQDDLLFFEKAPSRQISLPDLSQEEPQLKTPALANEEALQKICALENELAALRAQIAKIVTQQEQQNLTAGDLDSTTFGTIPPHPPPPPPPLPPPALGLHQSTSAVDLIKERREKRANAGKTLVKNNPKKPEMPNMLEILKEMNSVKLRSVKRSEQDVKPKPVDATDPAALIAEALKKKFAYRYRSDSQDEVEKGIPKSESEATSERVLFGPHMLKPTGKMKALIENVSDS
UniProt Q9UBK8: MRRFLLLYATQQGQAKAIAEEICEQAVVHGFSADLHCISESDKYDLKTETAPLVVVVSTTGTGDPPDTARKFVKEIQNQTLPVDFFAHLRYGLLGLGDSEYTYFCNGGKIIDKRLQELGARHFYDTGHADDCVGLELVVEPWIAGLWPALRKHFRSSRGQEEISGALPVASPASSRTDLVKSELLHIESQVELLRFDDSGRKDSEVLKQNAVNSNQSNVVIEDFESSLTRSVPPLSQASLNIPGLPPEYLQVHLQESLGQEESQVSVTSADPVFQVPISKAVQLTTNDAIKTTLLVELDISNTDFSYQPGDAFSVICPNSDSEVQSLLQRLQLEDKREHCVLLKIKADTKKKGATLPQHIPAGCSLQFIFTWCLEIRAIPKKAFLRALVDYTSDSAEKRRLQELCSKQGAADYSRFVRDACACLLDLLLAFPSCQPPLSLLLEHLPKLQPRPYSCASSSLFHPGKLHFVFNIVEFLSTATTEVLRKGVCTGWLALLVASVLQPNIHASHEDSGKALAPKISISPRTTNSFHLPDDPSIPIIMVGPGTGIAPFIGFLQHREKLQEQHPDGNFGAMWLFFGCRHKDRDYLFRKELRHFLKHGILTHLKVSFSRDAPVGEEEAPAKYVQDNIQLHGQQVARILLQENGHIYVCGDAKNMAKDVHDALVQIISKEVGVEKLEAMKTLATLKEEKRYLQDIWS
UniProt Q9P0P8: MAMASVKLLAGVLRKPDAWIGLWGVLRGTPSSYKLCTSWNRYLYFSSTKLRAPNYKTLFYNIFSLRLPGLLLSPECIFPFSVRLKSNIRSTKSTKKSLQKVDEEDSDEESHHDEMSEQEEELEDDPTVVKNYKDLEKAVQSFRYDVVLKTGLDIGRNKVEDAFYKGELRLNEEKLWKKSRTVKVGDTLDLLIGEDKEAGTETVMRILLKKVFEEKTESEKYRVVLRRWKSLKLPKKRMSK
UniProt P03905, whole entry, looked up: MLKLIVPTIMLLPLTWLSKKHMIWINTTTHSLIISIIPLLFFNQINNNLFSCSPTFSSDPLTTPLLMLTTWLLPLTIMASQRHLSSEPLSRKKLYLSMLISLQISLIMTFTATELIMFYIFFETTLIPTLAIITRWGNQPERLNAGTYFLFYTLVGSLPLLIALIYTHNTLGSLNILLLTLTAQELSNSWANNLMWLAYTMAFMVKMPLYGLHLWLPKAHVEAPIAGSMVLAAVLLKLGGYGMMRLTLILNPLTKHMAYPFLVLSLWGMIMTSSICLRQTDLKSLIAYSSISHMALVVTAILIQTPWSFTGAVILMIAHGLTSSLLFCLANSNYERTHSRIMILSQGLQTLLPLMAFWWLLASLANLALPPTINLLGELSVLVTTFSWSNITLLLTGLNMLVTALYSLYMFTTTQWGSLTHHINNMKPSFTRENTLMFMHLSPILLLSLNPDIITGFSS
UniProt Q9Y6C9: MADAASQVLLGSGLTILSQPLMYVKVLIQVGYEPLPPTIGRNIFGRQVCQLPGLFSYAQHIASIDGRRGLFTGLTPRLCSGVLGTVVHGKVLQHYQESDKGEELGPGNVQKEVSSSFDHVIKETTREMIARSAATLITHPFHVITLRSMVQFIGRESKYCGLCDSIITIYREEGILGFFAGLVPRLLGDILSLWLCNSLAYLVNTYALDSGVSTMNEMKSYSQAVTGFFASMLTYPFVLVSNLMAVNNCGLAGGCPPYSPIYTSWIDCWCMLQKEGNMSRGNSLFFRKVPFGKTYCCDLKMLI
UniProt P03928: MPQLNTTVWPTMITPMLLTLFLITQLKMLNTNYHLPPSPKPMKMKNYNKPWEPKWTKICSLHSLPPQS
UniProt Q9UGC7: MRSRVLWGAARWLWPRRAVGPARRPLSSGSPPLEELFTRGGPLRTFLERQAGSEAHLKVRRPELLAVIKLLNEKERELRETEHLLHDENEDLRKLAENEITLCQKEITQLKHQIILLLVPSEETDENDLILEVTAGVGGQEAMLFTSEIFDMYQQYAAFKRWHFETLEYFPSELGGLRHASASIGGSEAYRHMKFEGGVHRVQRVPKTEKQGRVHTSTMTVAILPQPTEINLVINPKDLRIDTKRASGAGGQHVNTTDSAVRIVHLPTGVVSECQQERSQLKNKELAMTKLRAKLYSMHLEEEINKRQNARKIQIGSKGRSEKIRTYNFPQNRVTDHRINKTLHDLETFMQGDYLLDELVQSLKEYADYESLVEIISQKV
UniProt O94776: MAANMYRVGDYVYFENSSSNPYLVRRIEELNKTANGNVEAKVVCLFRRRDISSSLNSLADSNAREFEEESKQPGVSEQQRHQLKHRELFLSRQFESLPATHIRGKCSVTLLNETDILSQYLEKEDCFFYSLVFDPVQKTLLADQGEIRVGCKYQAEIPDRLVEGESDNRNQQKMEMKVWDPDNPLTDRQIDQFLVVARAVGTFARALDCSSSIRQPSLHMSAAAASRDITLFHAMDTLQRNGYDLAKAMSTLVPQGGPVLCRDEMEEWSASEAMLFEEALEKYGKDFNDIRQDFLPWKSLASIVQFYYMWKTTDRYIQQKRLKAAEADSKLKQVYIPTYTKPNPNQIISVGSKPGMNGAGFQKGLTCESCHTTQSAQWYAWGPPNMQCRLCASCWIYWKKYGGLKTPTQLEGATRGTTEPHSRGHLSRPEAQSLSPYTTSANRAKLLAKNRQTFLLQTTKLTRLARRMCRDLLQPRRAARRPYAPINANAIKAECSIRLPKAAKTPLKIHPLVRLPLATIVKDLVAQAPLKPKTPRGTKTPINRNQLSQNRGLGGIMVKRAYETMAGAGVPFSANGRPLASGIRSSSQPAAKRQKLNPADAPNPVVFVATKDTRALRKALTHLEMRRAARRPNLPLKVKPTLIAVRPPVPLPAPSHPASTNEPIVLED
UniProt P13640: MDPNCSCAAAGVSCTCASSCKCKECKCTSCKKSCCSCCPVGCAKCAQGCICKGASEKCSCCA
UniProt P52701: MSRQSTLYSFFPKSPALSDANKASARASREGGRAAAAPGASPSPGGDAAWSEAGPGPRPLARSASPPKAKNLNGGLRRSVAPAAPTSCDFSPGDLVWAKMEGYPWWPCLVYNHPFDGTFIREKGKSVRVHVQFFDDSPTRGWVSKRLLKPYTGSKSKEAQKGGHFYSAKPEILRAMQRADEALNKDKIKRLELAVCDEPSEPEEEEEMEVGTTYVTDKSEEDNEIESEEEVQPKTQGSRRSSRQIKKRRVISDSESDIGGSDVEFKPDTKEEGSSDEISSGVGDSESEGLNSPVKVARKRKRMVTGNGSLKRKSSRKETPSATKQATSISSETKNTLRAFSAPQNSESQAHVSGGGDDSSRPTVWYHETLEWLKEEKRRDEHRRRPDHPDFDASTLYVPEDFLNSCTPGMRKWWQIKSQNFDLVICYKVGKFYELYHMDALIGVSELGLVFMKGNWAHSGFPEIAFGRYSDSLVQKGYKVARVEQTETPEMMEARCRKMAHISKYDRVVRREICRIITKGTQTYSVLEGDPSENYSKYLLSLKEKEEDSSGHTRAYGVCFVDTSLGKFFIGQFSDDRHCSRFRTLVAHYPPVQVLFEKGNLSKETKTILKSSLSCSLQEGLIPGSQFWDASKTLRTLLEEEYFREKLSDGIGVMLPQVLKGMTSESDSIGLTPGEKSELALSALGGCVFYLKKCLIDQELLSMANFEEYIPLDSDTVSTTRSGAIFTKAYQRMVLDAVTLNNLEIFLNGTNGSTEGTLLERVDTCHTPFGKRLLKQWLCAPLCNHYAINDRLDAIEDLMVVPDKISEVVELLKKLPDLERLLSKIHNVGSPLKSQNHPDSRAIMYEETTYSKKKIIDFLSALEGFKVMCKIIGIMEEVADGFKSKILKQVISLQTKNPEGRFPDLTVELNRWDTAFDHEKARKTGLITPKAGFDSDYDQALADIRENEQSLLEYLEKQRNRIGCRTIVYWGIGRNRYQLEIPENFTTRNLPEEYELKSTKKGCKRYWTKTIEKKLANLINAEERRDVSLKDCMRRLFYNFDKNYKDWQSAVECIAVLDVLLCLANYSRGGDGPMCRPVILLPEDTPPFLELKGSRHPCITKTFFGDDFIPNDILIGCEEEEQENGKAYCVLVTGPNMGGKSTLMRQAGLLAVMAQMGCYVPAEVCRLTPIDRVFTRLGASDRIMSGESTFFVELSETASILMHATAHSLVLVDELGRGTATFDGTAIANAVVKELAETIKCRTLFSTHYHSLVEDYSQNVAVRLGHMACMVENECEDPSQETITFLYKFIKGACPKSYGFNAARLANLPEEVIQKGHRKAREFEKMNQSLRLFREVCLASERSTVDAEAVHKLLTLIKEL
UniProt Q2M296: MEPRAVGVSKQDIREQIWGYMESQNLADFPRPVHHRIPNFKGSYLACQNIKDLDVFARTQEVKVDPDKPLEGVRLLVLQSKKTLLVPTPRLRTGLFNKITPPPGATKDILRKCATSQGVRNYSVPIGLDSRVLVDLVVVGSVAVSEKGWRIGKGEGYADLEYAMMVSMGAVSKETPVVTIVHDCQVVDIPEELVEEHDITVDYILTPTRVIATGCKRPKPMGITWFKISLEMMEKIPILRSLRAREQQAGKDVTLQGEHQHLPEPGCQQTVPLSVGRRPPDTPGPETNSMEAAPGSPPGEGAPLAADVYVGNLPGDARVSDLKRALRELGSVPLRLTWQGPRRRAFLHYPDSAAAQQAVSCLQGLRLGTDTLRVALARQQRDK

This is one part of the list.

Compound in one experiment: COC(=O)[C@H](CCSC)NC(=O)C1=C(C=C(C=C1)NC[C@H](CS)N)C2=CC=CC=C2
Put plainly: log2 fold change, soluble protein after heating vs DMSO (PISA); higher = thermal stabilisation; K562 lysate, 10 uM; active = over 0.2 and 3.5 SD of the protein, either way, in both replicates (recomputed). A digest of the protocol:
(§1)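 Values give the log-two fold change in thermal stability against solvent controls, from duplicates. Crude K562 extract at 1 mg/mL protein, made by dounce homogenisation in PBS pH 7.4 with 1 mM MgCl2, was treated with 10 μM compound for 30 min. After 3 min heating across 48°C-58°C, aliquots were pooled, adjusted to 0.5% NP-40 at 4°C and centrifuged at 21,000xg for 90 min. The supernatant was measured by TMTpro 16plex LC-MS/MS with channel sums equalised.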
With MTCL1 (UniProt Q9Y4B5), the log2 fold change was inactive: 0.051.

Consider MRPS23 (UniProt Q9Y3D9), for which the log2 fold change was inactive: 0.019.

Take MTMR1 (UniProt Q13613): the log2 fold change was inactive: 0.098.

For the target MSMO1 (UniProt Q15800), the log2 fold change was inactive: -0.053.

For MSI2 (UniProt Q96DH6), the log2 fold change is inactive: -0.023.

As for MRPS11 (UniProt P82912), the log2 fold change was inactive: -0.213.

Consider MTOR (UniProt P42345), for which the log2 fold change was inactive: 0.014.

In the case of MRPL37 (UniProt Q9BZE1), the log2 fold change was inactive: 0.015.

MRPL38 (UniProt Q96DV4): the log2 fold change is inactive: 0.036.

With MRPS27 isoform 2 (UniProt Q92552), the log2 fold change is inactive: 0.003.

As for MRRF (UniProt Q96E11), the log2 fold change is inactive: -0.133.

MRPS6 (UniProt P82932): the log2 fold change is inactive: -0.206.

Turning to MRPL43 isoform 4 (UniProt Q8N983), the log2 fold change was inactive: -0.11.

For the target MTA1 (UniProt Q13330), the log2 fold change was inactive: 0.098.

MTFR1 (UniProt Q15390): the log2 fold change is inactive: -0.072.

On to MRPS16 (UniProt Q9Y3D3), for which the log2 fold change is inactive: -0.117.

For MTRR isoform 1 (UniProt Q9UBK8), the log2 fold change is inactive: 0.01.

On to MTRES1 (UniProt Q9P0P8), for which the log2 fold change was inactive: -0.111.

Take MTHFD1, A0A384N5Y3: the log2 fold change was inactive: 0.145.

For MT-ND4 (UniProt P03905), the log2 fold change is inactive: -0.065.

Take MTCH2 (UniProt Q9Y6C9): the log2 fold change is inactive: 0.043.

Turning to MRPS7 (UniProt Q9Y2R9), the log2 fold change was inactive: -0.041.

As for MTM1 (UniProt Q13496), the log2 fold change was inactive: 0.016.

For the target MT-ATP8 (UniProt P03928), the log2 fold change was inactive: -0.139.

In the case of MRPL55 isoform 2 (UniProt Q7Z7F7), the log2 fold change was inactive: 0.021.

MT-CO1 (UniProt P00395): the log2 fold change was inactive: 0.033.

In the case of MRPS21 (UniProt P82921), the log2 fold change is inactive: -0.065.

Turning to MRPL50 (UniProt Q8N5N7), the log2 fold change was inactive: -0.306.

With MTRF1L (UniProt Q9UGC7), the log2 fold change was inactive: 0.045.

Take MSRB2 (UniProt Q9Y3D2): the log2 fold change is inactive: -0.067.

Take MRPS14 (UniProt O60783): the log2 fold change is inactive: -0.049.

On to MRPL9 (UniProt Q9BYD2), for which the log2 fold change was inactive: 0.055.

As to MRPS26 (UniProt Q9BYN8), the log2 fold change is inactive: -0.037.

As to MRPS9 (UniProt P82933), the log2 fold change is inactive: 0.021.

MTA2 (UniProt O94776): the log2 fold change is inactive: 0.134.

For MT1G (UniProt P13640), the log2 fold change is inactive: -0.135.

As for MSH6 (UniProt P52701), the log2 fold change is inactive: 0.105.

Compound in a further experiment: COc1cc(Nc2ncc3c(n2)-c2ccc(Cl)cc2C(c2c(F)cccc2OC)=NC3)ccc1C(=O)O [alisertib]
The experiment is described as above. A digest of the protocol:
as §1
Consider MRPS23 (UniProt Q9Y3D9), for which the log2 fold change is inactive: -0.011.

For MTMR1 (UniProt Q13613), the log2 fold change was inactive: 0.032.

Regarding MSMO1 (UniProt Q15800), the log2 fold change is inactive: -0.099.

Consider MSI2 (UniProt Q96DH6), for which the log2 fold change is inactive: 0.026.

As to MRPS11 (UniProt P82912), the log2 fold change is inactive: 0.136.

For MTOR (UniProt P42345), the log2 fold change is inactive: 0.006.

Turning to MRPL37 (UniProt Q9BZE1), the log2 fold change is inactive: 0.014.

In the case of MRPL38 (UniProt Q96DV4), the log2 fold change was inactive: 0.02.

In the case of MRPS27 isoform 2 (UniProt Q92552), the log2 fold change is inactive: -0.022.

Consider MRRF (UniProt Q96E11), for which the log2 fold change was inactive: 0.005.

With MRPS6 (UniProt P82932), the log2 fold change is inactive: 0.026.

In the case of MRPL43 isoform 4 (UniProt Q8N983), the log2 fold change is inactive: 0.013.

Turning to MTA1 (UniProt Q13330), the log2 fold change is inactive: -0.026.

With MTFR1 (UniProt Q15390), the log2 fold change is inactive: -0.088.

As for MRPS16 (UniProt Q9Y3D3), the log2 fold change was inactive: -0.014.

In the case of MTRR isoform 1 (UniProt Q9UBK8), the log2 fold change is inactive: -0.01.

Regarding MTRES1 (UniProt Q9P0P8), the log2 fold change was inactive: 0.091.

Take MTHFD1, A0A384N5Y3: the log2 fold change is inactive: -0.007.

As to MT-ND4 (UniProt P03905), the log2 fold change is inactive: -0.014.

On to MTCH2 (UniProt Q9Y6C9), for which the log2 fold change is inactive: 0.013.

For the target MRPS7 (UniProt Q9Y2R9), the log2 fold change was inactive: -0.017.

For MTM1 (UniProt Q13496), the log2 fold change was inactive: 0.

As to MT-ATP8 (UniProt P03928), the log2 fold change is inactive: -0.017.

As for MRPL55 isoform 2 (UniProt Q7Z7F7), the log2 fold change was inactive: 0.06.

Consider MT-CO1 (UniProt P00395), for which the log2 fold change is inactive: 0.039.

On to MRPS21 (UniProt P82921), for which the log2 fold change was inactive: -0.089.

In the case of MRPL50 (UniProt Q8N5N7), the log2 fold change is inactive: -0.022.

MTHFSD isoform 3 (UniProt Q2M296): the log2 fold change is inactive: 0.004.

As for MTRF1L (UniProt Q9UGC7), the log2 fold change was inactive: 0.001.

On to MSRB2 (UniProt Q9Y3D2), for which the log2 fold change is inactive: -0.017.

Take MRPS14 (UniProt O60783): the log2 fold change is inactive: 0.155.

Turning to MRPL9 (UniProt Q9BYD2), the log2 fold change is inactive: 0.023.

As to MRPL35 (UniProt Q9NZE8), the log2 fold change was inactive: 0.01.

Consider MRPS26 (UniProt Q9BYN8), for which the log2 fold change was inactive: -0.066.

Regarding MRPS9 (UniProt P82933), the log2 fold change is inactive: -0.021.

For the target MTA2 (UniProt O94776), the log2 fold change was inactive: 0.012.

For the target MT1G (UniProt P13640), the log2 fold change is inactive: -0.077.

With MSH6 (UniProt P52701), the log2 fold change is inactive: 0.003.
